Assay results reported in the supplement of paper PMC4604168 (melanoma cell lines).
This is one part of the list. Repeats are few or missing, and single values can be far off.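 Imaging used 1,536-well plates; nuclei positive for cleaved PARP by antibody were divided by total DNA-stained nuclei to yield the apoptosis fraction. Doses for screening kept most cells viable, and cell lines differ markedly in resting and induced cleaved-PARP levels.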

How the values were obtained:
Assay in all cases: cleaved PARP positive nuclei fraction relative to DMSO control; melanoma cells; higher = more apoptosis
Conditions in all cases: library dose: low library concentration; 72 h
[1] = tested on: CBRC034 (line from a melanoma biopsy)
[2] = tested on: COLO792
[3] = tested on: COLO800
[4] = tested on: COLO829
[5] = tested on: G361
[6] = tested on: IPC-298
[7] = tested on: IST-MEL1
[8] = tested on: LB2518-MEL
[9] = tested on: LOXIMVI
[10] = tested on: MEL-HO

Row | SMILES | cleaved PARP positive nuclei fraction [1] | cleaved PARP positive nuclei fraction [2] | cleaved PARP positive nuclei fraction [3] | cleaved PARP positive nuclei fraction [4] | cleaved PARP positive nuclei fraction [5] | cleaved PARP positive nuclei fraction [6] | cleaved PARP positive nuclei fraction [7] | cleaved PARP positive nuclei fraction [8] | cleaved PARP positive nuclei fraction [9] | cleaved PARP positive nuclei fraction [10]
1 | CCCCCCCCc1ccc(CCC(N)(CO)CO)cc1 [fingolimod] + Cn1c(=O)n(-c2ccc(C(C)(C)C#N)cc2)c2c3cc(-c4cnc5ccccc5c4)ccc3ncc21 [NVP-BEZ235] (first compound 2 µM, partner dose 0.004 µM) | 154% | 96.4% | 142% | 136% | 106% | 91.6% | 431% | 114% | 76.4% | 154%
2 | Cn1sc(=O)n(Cc2ccccc2)c1=O + CS(=O)(=O)CCNCc1ccc(-c2ccc3ncnc(Nc4ccc(OCc5cccc(F)c5)c(Cl)c4)c3c2)o1 [lapatinib] (first compound 0.4 µM, partner dose 0.8 µM) | 114% | 105% | 110% | 85.9% | 94.1% | 84.1% | 174% | 104% | 233% | 92.7%
3 | C[C@@H](N)c1ccc(C(=O)Nc2ccnc3[nH]ccc23)cc1 + Cn1sc(=O)n(Cc2ccccc2)c1=O [TDZD-8] (first compound 0.4 µM, partner dose 0.4 µM) | 58.8% | 135% | 40.1% | 111% | 139% | 84.3% | 64.5% | 92.7% | 74.6% | 45.8%
4 | CS(=O)(=O)c1ccc(C(=O)Nc2ccc(Cl)c(-c3ccccn3)c2)c(Cl)c1 [vismodegib] + Cc1nc(Nc2ncc(C(=O)Nc3c(C)cccc3Cl)s2)cc(N2CCN(CCO)CC2)n1 [dasatanib] (first compound 1 µM, partner dose 0.004 µM) | 63.4% | 122% | 127% | 119% | 124% | 83.9% | 128% | 89.3% | 172% | 42.4%
5 | CN(c1ncccc1CNc1nc(Nc2ccc3c(c2)CC(=O)N3)ncc1C(F)(F)F)S(C)(=O)=O + CS(=O)(=O)CCNCc1ccc(-c2ccc3ncnc(Nc4ccc(OCc5cccc(F)c5)c(Cl)c4)c3c2)o1 [lapatinib] (first compound 0.08 µM, partner dose 0.8 µM) | 289% | 104% | 136% | 61.8% | 158% | 279% | 129% | 49.3% | 156% | 123%
6 | CN(c1ncccc1CNc1nc(Nc2ccc3c(c2)CC(=O)N3)ncc1C(F)(F)F)S(C)(=O)=O + C[C@]1(c2nc3c(C(N)=O)cccc3[nH]2)CCCN1 [Veliparib] (first compound 0.08 µM, partner dose 1.4 µM) | 92.4% | 158% | 147% | 113% | 62.1% | 40.3% | 33.1% | 105% | 120% | 146%
7 | COc1ccc(C2=N[C@@H](c3ccc(Cl)cc3)[C@@H](c3ccc(Cl)cc3)N2C(=O)N2CCNC(=O)C2)c(OC(C)C)c1 [Nutlin-3] + Nc1ccn([C@@H]2O[C@H](CO)[C@@H](O)C2(F)F)c(=O)n1 [gemcitabine] (first compound 0.1 µM, partner dose 0.0004 µM) | 103% | 125% | 38.1% | 117% | 185% | 359% | 21.3% | 64.2% | 39.4% | 75.6%
8 | Cn1sc(=O)n(Cc2ccccc2)c1=O + CO[C@H]1C[C@@H]2CC[C@@H](C)[C@@](O)(O2)C(=O)C(=O)N2CCCC[C@H]2C(=O)O[C@H]([C@H](C)C[C@@H]2CC[C@@H](OCCO)[C@H](OC)C2)CC(=O)[C@H](C)/C=C(\C)[C@@H](O)[C@@H](OC)C(=O)[C@H](C)C[C@H](C)/C=C/C=C/C=C/1C [everolimus] (first compound 0.4 µM, partner dose 0.02 µM) | 76.9% | 92.2% | 135% | 75.5% | 173% | 123% | 175% | 133% | 126% | 128%
9 | CS(=O)(=O)c1ccc(C(=O)Nc2ccc(Cl)c(-c3ccccn3)c2)c(Cl)c1 [vismodegib] + C=C(c1ccc(C(=O)O)cc1)c1cc2c(cc1C)C(C)(C)CCC2(C)C [Bexarotene] (first compound 1 µM, partner dose 2 µM) | 158% | 83.7% | 43.7% | 48.5% | 57.2% | 41.5% | 193% | 55.6% | 79.3% | 110%
10 | CN(c1ncccc1CNc1nc(Nc2ccc3c(c2)CC(=O)N3)ncc1C(F)(F)F)S(C)(=O)=O + CO[C@H]1C[C@@H]2CC[C@@H](C)[C@@](O)(O2)C(=O)C(=O)N2CCCC[C@H]2C(=O)O[C@H]([C@H](C)C[C@@H]2CC[C@@H](OCCO)[C@H](OC)C2)CC(=O)[C@H](C)/C=C(\C)[C@@H](O)[C@@H](OC)C(=O)[C@H](C)C[C@H](C)/C=C/C=C/C=C/1C [everolimus] (first compound 0.08 µM, partner dose 0.02 µM) | 140% | 154% | 100% | 109% | 74.6% | 121% | 82.9% | 157% | 191% | 85.7%
11 | CCCCCCCCc1ccc(CCC(N)(CO)CO)cc1 [fingolimod] + CC(=O)O[C@@]12CO[C@@H]1C[C@H](O)[C@@]1(C)C(=O)[C@H](O)C3=C(C)[C@@H](OC(=O)[C@H](O)[C@@H](NC(=O)OC(C)(C)C)c4ccccc4)C[C@@](O)([C@@H](OC(=O)c4ccccc4)[C@H]21)C3(C)C [Docetaxel] (first compound 2 µM, partner dose 0.0001 µM) | 108% | 391% | 346% | 135% | 541% | 272% | 156% | 236% | 160% | 131%
12 | CC(=O)O[C@@]12CO[C@@H]1C[C@H](O)[C@@]1(C)C(=O)[C@H](O)C3=C(C)[C@@H](OC(=O)[C@H](O)[C@@H](NC(=O)OC(C)(C)C)c4ccccc4)C[C@@](O)([C@@H](OC(=O)c4ccccc4)[C@H]21)C3(C)C [Docetaxel] + CCCS(=O)(=O)Nc1ccc(F)c(C(=O)c2c[nH]c3ncc(Cl)cc23)c1F [PLX4720] (first compound 0.0001 µM, partner dose 0.08 µM) | 108% | 480% | 230% | 113% | 476% | 101% | 71.8% | 127% | 160% | 81%
13 | Cn1cnc2c(F)c(Nc3ccc(Br)cc3Cl)c(C(=O)NOCCO)cc21 [selumetinib] + CC(=O)c1c(C)c2cnc(Nc3ccc(N4CCNCC4)cn3)nc2n(C2CCCC2)c1=O [palbociclib] (first compound 0.015 µM, partner dose 0.04 µM) | 45.3% | 103% | 109% | 77.4% | 162% | 64.6% | 316% | 213% | 96% | 39.8%
14 | C[C@]1(O)C[C@@H](c2nc(-c3ccc4ccc(-c5ccccc5)nc4c3)c3c(N)nccn32)C1 + Cn1c(Nc2ccc(C(F)(F)F)cc2)nc2cc(Oc3ccnc(-c4ncc(C(F)(F)F)[nH]4)c3)ccc21 [CHIR265] (first compound 0.4 µM, partner dose 0.08 µM) | 201% | 258% | 124% | 127% | 360% | 82% | 31.8% | 448% | 95.5% | 197%
15 | Cn1sc(=O)n(Cc2ccccc2)c1=O + CCCCCCCCc1ccc(CCC(N)(CO)CO)cc1 [fingolimod] (first compound 0.4 µM, partner dose 2 µM) | 62.8% | 56.2% | 125% | 123% | 68.1% | 87.2% | 397% | 107% | 150% | 32.3%
16 | NC(=O)c1ccc(N(C(N)=O)c2c(F)cccc2F)nc1-c1ccc(F)cc1F + Cc1nc(Nc2ncc(C(=O)Nc3c(C)cccc3Cl)s2)cc(N2CCN(CCO)CC2)n1 [dasatanib] (first compound 0.4 µM, partner dose 0.004 µM) | 236% | 208% | 90.4% | 88.7% | 132% | 114% | 91.3% | 226% | 391% | 142%
17 | CC(=O)O[C@@]12CO[C@@H]1C[C@H](O)[C@@]1(C)C(=O)[C@H](O)C3=C(C)[C@@H](OC(=O)[C@H](O)[C@@H](NC(=O)OC(C)(C)C)c4ccccc4)C[C@@](O)([C@@H](OC(=O)c4ccccc4)[C@H]21)C3(C)C [Docetaxel] + C=CCNC1=C2C[C@@H](C)C[C@H](OC)[C@H](O)[C@@H](C)/C=C(\C)[C@H](OC(N)=O)[C@@H](OC)/C=C\C=C(/C)C(=O)NC(=CC1=O)C2=O [Tanespimycin] (first compound 0.0001 µM, partner dose 0.002 µM) | 78.3% | 477% | 262% | 124% | 433% | 193% | 91% | 189% | 180% | 54.8%
18 | COc1ccc(C2=N[C@@H](c3ccc(Cl)cc3)[C@@H](c3ccc(Cl)cc3)N2C(=O)N2CCNC(=O)C2)c(OC(C)C)c1 [Nutlin-3] + CCN(CC)CCNC(=O)c1c(C)[nH]c(/C=C2\C(=O)Nc3ccc(F)cc32)c1C [sunitinib] (first compound 0.1 µM, partner dose 0.4 µM) | 63.4% | 170% | 66.3% | 110% | 84.5% | 111% | 60.1% | 113% | 91.2% | 107%
19 | CC(=O)O[C@@]12CO[C@@H]1C[C@H](O)[C@@]1(C)C(=O)[C@H](O)C3=C(C)[C@@H](OC(=O)[C@H](O)[C@@H](NC(=O)OC(C)(C)C)c4ccccc4)C[C@@](O)([C@@H](OC(=O)c4ccccc4)[C@H]21)C3(C)C [Docetaxel] + C#Cc1cccc(Nc2ncnc3cc(OCCOC)c(OCCOC)cc23)c1 [erlotinib] (first compound 0.0001 µM, partner dose 0.8 µM) | 166% | 971% | 229% | 178% | 1170% | 332% | 61.7% | 530% | 189% | 135%
20 | CC1(C)CCC(c2ccc(Cl)cc2)=C(CN2CCN(c3ccc(C(=O)NS(=O)(=O)c4ccc(N[C@H](CCN5CCOCC5)CSc5ccccc5)c(S(=O)(=O)C(F)(F)F)c4)cc3)CC2)C1 + C[C@@H](N)c1ccc(C(=O)Nc2ccnc3[nH]ccc23)cc1 [RKI983] (first compound 0.4 µM, partner dose 0.4 µM) | 390% | 529% | 138% | 105% | 290% | 173% | 174% | 114% | 188% | 289%

Full records from above. Values in the order: cleaved PARP positive nuclei fraction [1] | cleaved PARP positive nuclei fraction [2] | cleaved PARP positive nuclei fraction [3] | cleaved PARP positive nuclei fraction [4] | cleaved PARP positive nuclei fraction [5] | cleaved PARP positive nuclei fraction [6] | cleaved PARP positive nuclei fraction [7] | cleaved PARP positive nuclei fraction [8] | cleaved PARP positive nuclei fraction [9] | cleaved PARP positive nuclei fraction [10]
C[C@@H](N)c1ccc(C(=O)Nc2ccnc3[nH]ccc23)cc1 + Cn1sc(=O)n(Cc2ccccc2)c1=O [TDZD-8] (first compound 0.4 µM, partner dose 0.4 µM) reads 58.8% | 135% | 40.1% | 111% | 139% | 84.3% | 64.5% | 92.7% | 74.6% | 45.8%
CS(=O)(=O)c1ccc(C(=O)Nc2ccc(Cl)c(-c3ccccn3)c2)c(Cl)c1 [vismodegib] + Cc1nc(Nc2ncc(C(=O)Nc3c(C)cccc3Cl)s2)cc(N2CCN(CCO)CC2)n1 [dasatanib] (first compound 1 µM, partner dose 0.004 µM) reads 63.4% | 122% | 127% | 119% | 124% | 83.9% | 128% | 89.3% | 172% | 42.4%
